# Data taken from PubChem BioAssay AID445 (National Center for Advancing Translational Sciences (NCATS), 2006).
# The list shows a part of the results. The main result of the screen is listed elsewhere. These columns were measured beside it and carry no call. Most of these compounds were active or inconclusive in the main read-out, so they are no random draw. The note in brackets gives the kind of curve behind each potency; many fits are weak.
# Assay: IkB Signaling
# Details: ABC-DLBCL IkBa-CBG/CBR dual luciferase ratio (green luciferase fused to IkBa over red control in OCI-Ly3 lymphoma cells), 4 h
# Summary of the method: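 In this assay, an IκBα–CBG68 fusion accumulates when IKK-driven degradation is blocked; native CBR normalizes for cell number. OCI-Ly3 cells were treated 4 h with compound and doxycycline, then green and red light read after Chroma-Glo addition.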
# [1] = measured here: control luc red channel unless noted
# [2] = measured here: IkB-luc green channel
# [3] = measured here: control luc red channel
structure (smiles),measurement,setting,value
COc1ccc(N2CCN(CCCNC(=O)c3nnc(Cc4ccccc4Cl)o3)CC2)cc1,AC50,[1],"39.8 µM [falling, single point]"
Cc1cc(C)n2c(Nc3ccc4c(c3)OCCO4)c(-c3ccccc3)nc2n1,AC50,[1],"12.6 µM [falling, partial curve]"
COc1ccc(/C=C/C(=O)Nc2cc(-c3nc4ccccc4o3)ccc2OC)cc1,AC50,[1],"0.316 µM [falling, full curve]"
Cc1ccc(S(=O)(=O)c2[nH]c(-c3ccccc3)nc2SC(C)C(=O)O)cc1 (stereo not given),AC50,[1],"20 µM [falling, partial curve]"
COc1cc2ncnc(Nc3cccc(Br)c3)c2cc1OC,AC50,[1],"39.8 µM [falling, partial curve, poor fit]"
COc1cccc(C2=CC(c3cccc(OC)c3OC(F)F)n3nnnc3N2)c1 (stereo not given),AC50,[1],"15.8 µM [falling, partial curve]"
O=C(C1CC1)N1CCc2cc(S(=O)(=O)N(CCO)Cc3ccccc3)ccc21,AC50,[1],"25.1 µM [falling, single point]"
COc1ccc(CNC(=O)COC(=O)c2n[nH]c3ccccc23)cc1,AC50,[1],"15.8 µM [falling, partial curve]"
N#Cc1nc(-c2ccc(OCc3ccccc3Cl)cc2)oc1NCCCn1ccnc1,AC50,[1],"25.1 µM [falling, partial curve]"
COc1cc2ccccc2cc1C(=O)N1CCN(c2nc3c(F)cccc3s2)CC1,AC50,[1],"31.6 µM [falling, partial curve]"
Cn1c(COc2ccccc2C(C)(C)C)nc2ccccc21,AC50,[1],"20 µM [falling, single point]"
O=C(CSc1nnc(Cc2cccs2)n1Cc1ccco1)Nc1cc(Cl)cc(Cl)c1,AC50,[1],"6.31 µM [falling, partial curve]"
CC(C)(CC(=O)NCc1ccc(Cl)cc1Cl)CC1=NS(=O)(=O)c2ccccc2N1,AC50,[1],"3.16 µM [falling, partial curve]"
CN(C(=O)c1ccccc1)c1nc2ccccc2s1,AC50,[1],"31.6 µM [falling, partial curve]"
COc1ccc(-c2cc(C(=O)NC(C)C)no2)cc1,AC50,[1],"3.98 µM [falling, full curve]"
Cc1ccc(C(=O)N2CCN(c3cccc(Cl)c3)CC2)cc1-n1c(C)nc2cccnc21,AC50,[1],"20 µM [falling, single point]"
CCc1ccccc1N(CC)C(=O)C(=O)Nc1ccc2nc3n(c(=O)c2c1)CCCCC3,AC50,[1],"15.8 µM [falling, partial curve]"
COc1cc(NC(=O)COc2cccc(OC)c2)cc(OC)c1,AC50,[1],"7.94 µM [falling, partial curve]"
FC(F)(F)c1cccc(N2CCN(c3nc4ccccc4n4cnnc34)CC2)c1,AC50,[1],"7.94 µM [falling, partial curve]"
CC(=O)c1sc(Nc2nc3ccc(F)cc3s2)nc1C,AC50,[2],"6.31 µM [rising, single point]"
same,AC50,[3],"20 µM [falling, single point]"
CCS(=O)(=O)N1CCc2cc(C(=O)NC(C)c3ccccc3)ccc21 (stereo not given),AC50,[1],"10 µM [falling, partial curve]"
CCOC(=O)N1CCC(N(C(=O)Nc2ccc(Cl)c(Cl)c2)C(C)CC)CC1 (stereo not given),AC50,[1],"12.6 µM [falling, partial curve]"
O=c1c2sc3ccccc3c2n(Cc2cccc(C(F)(F)F)c2)c(=O)n1-c1ccccc1,AC50,[1],"1 µM [rising, full curve, poor fit]"
O=C1CC(c2ccccc2)Cc2[nH]c(=O)c(-c3nc(-c4ccc(Cl)c(Cl)c4)cs3)cc21 (stereo not given),AC50,[1],"10 µM [falling, partial curve]"
COc1ccc(Cl)cc1NC(=O)C(=O)NCc1ccc(Cl)cc1,AC50,[1],"2 µM [falling, full curve]"
COCCNS(=O)(=O)c1cc(-c2nn3c(C)nnc3c3ccccc23)ccc1C,AC50,[1],"15.8 µM [rising, partial curve] [measured here: IkB-luc green channel]"
Cc1ccc(C(=O)c2sc(Nc3ccc(F)cc3)c(C#N)c2N)cc1,AC50,[1],"3.16 µM [rising, full curve]"
COc1cccc(NC(=O)CN2C=NS(=O)(=O)c3ccccc32)c1,AC50,[1],"1 µM [falling, full curve, poor fit]"
Cc1cccc(CCn2c(=O)c3ccccc3n(Cc3ccccc3C)c2=O)c1,AC50,[1],"10 µM [falling, partial curve]"
CCN(CC)S(=O)(=O)c1cccc(-c2nnc(SCC(=O)c3ccc(Cl)s3)n2C)c1,AC50,[1],"25.1 µM [falling, partial curve]"
O=C(CCCCn1c(=O)[nH]c2ccccc2c1=O)NCCc1c[nH]c2ccccc12,AC50,[1],"15.8 µM [falling, partial curve]"
Cc1ccc(OC(=O)CSc2nnc(-c3ccc4c(c3)OCO4)o2)c(C)c1,AC50,[1],"7.94 µM [falling, partial curve]"
COC(=O)c1cccc(NC(=O)CSc2nnc(COc3ccc(C#N)cc3)n2-c2ccccc2)c1,AC50,[2],"5.01 µM [falling, partial curve]"
same,AC50,[3],"10 µM [falling, partial curve]"
COc1ccc2c(c1)c1c(c(=O)n(-c3ccc(F)c(Cl)c3)c(=O)n1Cc1ccccc1F)n2C,AC50,[1],"0.251 µM [rising, partial curve]"
COc1ccccc1NC(=O)C(=O)c1cc(C)n(-c2cc(C)cc(C)c2)c1C,AC50,[1],"25.1 µM [falling, partial curve]"
O=C1CN(C(=O)c2cccc(Br)c2)C(c2ccccc2)c2cc(Cl)ccc2N1 (stereo not given),AC50,[1],"2 µM [rising, single point]"
CCOc1cccc(-c2nc3ccccc3c(=O)o2)c1,AC50,[2],"6.31 µM [rising, single point]"
same,AC50,[3],"12.6 µM [falling, partial curve]"
COc1cccc(C(=O)Nc2nc(-c3nnn(-c4cc(C)ccc4C)c3C)ns2)c1,AC50,[1],"15.8 µM [falling, partial curve]"
CC(C)CN(c1ccccc1)S(=O)(=O)c1nnc(NC(=O)C2CCCCC2)s1,AC50,[1],"1.58 µM [rising, partial curve]"
Cc1ccc(-c2nc(CS(=O)(=O)CC(=O)NC(C)CCc3ccccc3)c(C)o2)cc1 (stereo not given),AC50,[1],"15.8 µM [falling, partial curve]"
Cc1c(NC(=O)Nc2cccc(C(F)(F)F)c2)sc2nc3n(c(=O)c12)CCC(C)CC3 (stereo not given),AC50,[1],"31.6 µM [falling, partial curve]"
O=C(CCS(=O)(=O)c1ccccc1)N(Cc1cccnc1)c1nc2c(F)cccc2s1,AC50,[1],"39.8 µM [falling, single point]"
CCc1ccccc1NC(=O)Cn1nnc(C(=O)NCc2ccco2)c1N,AC50,[1],"2 µM [rising, full curve]"
COC(=O)c1c(C)n(-c2ccc(OC)cc2)c2ccc(O)cc12,AC50,[1],"10 µM [falling, partial curve]"
O=C(O)CCc1ccc(-c2ccc(Br)cc2)n1-c1ccccc1O,AC50,[1],"15.8 µM [falling, partial curve]"
CCOC(=O)C1CCN(c2cc3c(cc2NC(=O)c2ccccc2Cl)n(C)c(=O)n3C)CC1,AC50,[1],"15.8 µM [falling, partial curve]"
CCCCN(CC)CCNC(=O)Cn1cnc2sc(C)c(S(=O)(=O)N3CCN(c4ccccc4OC)CC3)c2c1=O,AC50,[1],"12.6 µM [falling, partial curve]"
CCOc1ccc(N2CC(c3nc4ccccc4n3CCOc3ccc(OC)cc3)CC2=O)cc1 (stereo not given),AC50,[1],"39.8 µM [falling, single point]"
CC(C)Cc1nn2cc(-c3cccc(Br)c3)nc2s1,AC50,[1],"0.0501 µM [falling, full curve]"
CCOc1ccc2nc(N3CCCC(C(=O)NCCc4ccc(OC)cc4OC)C3)sc2c1 (stereo not given),AC50,[1],"31.6 µM [falling, single point]"
O=C(Nc1ccc(F)c(Cl)c1)c1cc(S(=O)(=O)NCc2ccc3c(c2)OCO3)ccc1F,AC50,[1],"20 µM [falling, partial curve]"
Cc1ccc(CNCc2c(C(=O)O)c(C)n(Cc3ccc(C)cc3)c2C)cc1,AC50,[1],"15.8 µM [falling, partial curve]"
CCn1c(=O)cc(OCC(=O)Nc2cc(OC)c(OC)c(OC)c2)c2ccccc21,AC50,[1],"31.6 µM [falling, partial curve]"
CCc1ccc(S(=O)(=O)c2c(C(=O)c3ccc(C)c(C)c3)cnc3ccccc23)cc1,AC50,[1],"6.31 µM [falling, partial curve]"
CCOc1ccc(CNC(=O)c2ccc3nc(CC)c(CC)nc3c2)cc1OC,AC50,[1],"39.8 µM [falling, partial curve]"
COc1cccc(N2CCN(c3ccc4nnc(CCC(=O)O)n4n3)CC2)c1,AC50,[1],"20 µM [falling, partial curve]"
COc1ccc(CCNC(=O)CCCCCn2c(SCC(N)=O)nc3cc4c(cc3c2=O)OCO4)cc1OC,AC50,[1],"0.126 µM [falling, full curve]"
CCN(CC)S(=O)(=O)c1ccc2c(c1)N(CC(=O)Nc1ccc(F)cc1)C(=O)CO2,AC50,[1],"15.8 µM [falling, partial curve]"
CCOC(=O)Cc1csc(NC(=O)c2ccc(S(=O)(=O)N3CCCCC3)cc2)n1,AC50,[1],"15.8 µM [falling, partial curve]"
Nc1c(-c2nc(-c3ccc(Cl)cc3)no2)nnn1-c1ccc(C(F)(F)F)c(Cl)c1,AC50,[1],"0.0398 µM [rising, full curve]"
COc1cc(NC(=O)c2cc(C3CC3)nc3c2c(C)nn3-c2ccc(C)cc2)cc(OC)c1,AC50,[1],"3.16 µM [falling, partial curve]"
CC(C)(C)C1CCC2(CC1)C(C#N)=C(SCC(=O)NC1CCCCC1)NC(=O)C2C#N (stereo not given),AC50,[1],"7.94 µM [falling, partial curve]"

# Rewritten bar-delimited: entries from further up
structure (smiles) | measurement | setting | value
Cc1ccc(S(=O)(=O)c2[nH]c(-c3ccccc3)nc2SC(C)C(=O)O)cc1 (stereo not given) | AC50 | [1] | 20 µM [falling, partial curve]
COc1cc2ncnc(Nc3cccc(Br)c3)c2cc1OC | AC50 | [1] | 39.8 µM [falling, partial curve, poor fit]
COc1cccc(C2=CC(c3cccc(OC)c3OC(F)F)n3nnnc3N2)c1 (stereo not given) | AC50 | [1] | 15.8 µM [falling, partial curve]
O=C(C1CC1)N1CCc2cc(S(=O)(=O)N(CCO)Cc3ccccc3)ccc21 | AC50 | [1] | 25.1 µM [falling, single point]
